The source of these data is paper PMC7195483.

These are yes or no findings as the source states them, for the method shown. For part of these data: Binding calls can cover weak binding; strength is not graded here. For part of these data: Sequences can lack the tags named with a protein.

What all share (assay): two-hybrid; Gal4 BD fusions with Gal4 AD fusions in reporter strains PJ69-4A or CG1945; HIS3 and ADE2 reporters, scored after 2 or 3 days; 5 or 20 mM 3-AT for stringency; also in PJ69-4A with wild-type or F250A Swd2 (reduced in F250A)
The target in assay [1] is T1, Bre2 two-hybrid construct tested with the 14-CTD repeat construct (S. cerevisiae) (UniProt P43132).
T1 sequence: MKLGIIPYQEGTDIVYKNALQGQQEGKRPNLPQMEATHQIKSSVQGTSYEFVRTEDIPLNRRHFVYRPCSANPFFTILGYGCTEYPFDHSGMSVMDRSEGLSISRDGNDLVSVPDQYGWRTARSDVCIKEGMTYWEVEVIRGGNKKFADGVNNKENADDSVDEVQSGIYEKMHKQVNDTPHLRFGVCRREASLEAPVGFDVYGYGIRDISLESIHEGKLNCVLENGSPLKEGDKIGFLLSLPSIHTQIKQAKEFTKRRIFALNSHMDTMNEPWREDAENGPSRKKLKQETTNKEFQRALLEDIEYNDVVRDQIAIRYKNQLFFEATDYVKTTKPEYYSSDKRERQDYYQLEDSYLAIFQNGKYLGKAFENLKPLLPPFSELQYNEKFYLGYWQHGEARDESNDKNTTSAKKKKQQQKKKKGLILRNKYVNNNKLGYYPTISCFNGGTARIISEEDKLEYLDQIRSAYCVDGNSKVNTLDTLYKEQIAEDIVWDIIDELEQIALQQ

The target in assay [2] is T2, Set1 fragment F1 (aa 1–236) fused to Gal4 BD (S. cerevisiae) (UniProt P38827).
T2 sequence: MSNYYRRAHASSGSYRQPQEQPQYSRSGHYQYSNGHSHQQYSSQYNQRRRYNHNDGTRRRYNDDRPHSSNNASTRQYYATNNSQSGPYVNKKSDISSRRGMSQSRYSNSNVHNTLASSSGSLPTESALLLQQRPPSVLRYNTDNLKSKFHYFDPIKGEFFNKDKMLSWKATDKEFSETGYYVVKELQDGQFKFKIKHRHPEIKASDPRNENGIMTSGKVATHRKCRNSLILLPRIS

Assay [3] has as its target T3, Set1 fragment F4 (aa 770–945) fused to Gal4 BD (S. cerevisiae) (UniProt P38827).
T3 sequence: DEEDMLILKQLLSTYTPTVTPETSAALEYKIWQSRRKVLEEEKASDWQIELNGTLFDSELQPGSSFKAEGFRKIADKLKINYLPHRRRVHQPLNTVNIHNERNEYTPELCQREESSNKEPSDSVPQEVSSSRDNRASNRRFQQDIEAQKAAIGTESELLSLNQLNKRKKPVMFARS

For assay [4], the target named is T4, Set1(1–200) fused to Gal4 BD (S. cerevisiae) (UniProt P38827).
T4 sequence: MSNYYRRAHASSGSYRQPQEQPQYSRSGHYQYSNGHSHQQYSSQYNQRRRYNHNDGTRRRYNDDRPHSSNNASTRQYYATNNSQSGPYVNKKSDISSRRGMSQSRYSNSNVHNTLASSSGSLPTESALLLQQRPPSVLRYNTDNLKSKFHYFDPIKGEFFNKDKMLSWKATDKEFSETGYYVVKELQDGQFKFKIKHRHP

The target in assay [5] is T5, Swd1 two-hybrid construct tested with the 14-CTD repeat construct (S. cerevisiae) (UniProt P39706).
T5 sequence: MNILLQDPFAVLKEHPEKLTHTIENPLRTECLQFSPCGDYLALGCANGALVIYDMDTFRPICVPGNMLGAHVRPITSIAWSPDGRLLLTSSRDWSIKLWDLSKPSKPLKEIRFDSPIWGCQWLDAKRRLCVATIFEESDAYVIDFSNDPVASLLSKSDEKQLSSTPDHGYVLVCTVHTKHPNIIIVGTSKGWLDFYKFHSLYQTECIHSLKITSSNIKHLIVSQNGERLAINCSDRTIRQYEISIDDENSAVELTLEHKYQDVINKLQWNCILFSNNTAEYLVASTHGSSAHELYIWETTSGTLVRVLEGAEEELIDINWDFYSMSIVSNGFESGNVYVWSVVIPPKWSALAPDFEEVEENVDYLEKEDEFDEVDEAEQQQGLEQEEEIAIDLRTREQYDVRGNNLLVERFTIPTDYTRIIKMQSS

The target in assay [6] is T6, Swd3 two-hybrid construct tested with the 14-CTD repeat construct (S. cerevisiae) (UniProt P38123).
T6 sequence: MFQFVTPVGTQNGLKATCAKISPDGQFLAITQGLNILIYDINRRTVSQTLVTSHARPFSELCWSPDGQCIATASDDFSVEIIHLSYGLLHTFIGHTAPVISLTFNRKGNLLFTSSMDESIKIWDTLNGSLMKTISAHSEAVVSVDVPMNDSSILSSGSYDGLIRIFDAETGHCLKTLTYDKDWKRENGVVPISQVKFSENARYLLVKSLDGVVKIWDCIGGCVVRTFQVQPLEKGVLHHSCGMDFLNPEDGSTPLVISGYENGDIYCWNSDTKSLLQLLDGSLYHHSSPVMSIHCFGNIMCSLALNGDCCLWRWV

As for “14-CTD repeat fragment of Rpb1 fused to the Gal4 activation domain (S. cerevisiae) (domain or fragment)”, the binding result is recorded as “no binding” in assay [1]; “binds” in assay [2]; “no binding” in assay [3]; “binds” in assay [4]; “no binding” in assay [5]; “no binding” in assay [6].
